PubChem BioAssay AID602196 | INSERM | 2012

- Screen: 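Genes whose knock-down alters cisplatin killing of lung cancer cells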
- Cells: human A549 lung cancer cells
- Knock-down reagent: siRNA pair against human genes
- Time to read-out: 48 h transfection before cisplatin; time from cisplatin to read-out not stated
- Treatment: cisplatin at a dose killing half of control-siRNA cells; exact dose and duration not given
- Detection: 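Cisplatin cell death as a shift from the 50% death seen with control siRNA; siRNAs toxic or growth-blocking alone scored 0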
- Scale: two-siRNA summed score (-2 to +2): higher = both siRNAs protect from cisplatin killing; -2 means both sensitise
- Call rule: 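siRNAs harmful alone (LDH or WST-1) get 0; others get +1 for less and -1 for more cisplatin killing; genes are active when the two siRNAs give the same sign, summing to ±2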
- Meaning of the calls: active = both siRNAs shift cisplatin killing the same way; inactive = no consistent shift, or siRNA harmful alone
In all, the deposit lists about 23,000 reagents; below is a part drawn at random. Over the whole deposit, 455 (2%) got an active call. 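Active includes both protection and sensitisation; some change values fall well beyond the stated -50 to +50 range.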 A number with no mark means an inactive call. Further read-outs or replicates are left out here. Not stated in the record: the amount of reagent.

Against B4GALNT1 the deposit lists two-siRNA summed score (-2 to +2) = 1.
SLC71A1 scored two-siRNA summed score (-2 to +2) = 0.
Knock-down of RFX6 gave: two-siRNA summed score (-2 to +2) = 1.
With knock-down of HS1BP3, the screen gave two-siRNA summed score (-2 to +2) = 0.
IFI16 showed two-siRNA summed score (-2 to +2) = -1.
With knock-down of PRSS3, the record shows two-siRNA summed score (-2 to +2) = 0.
Silencing of ST6GALNAC4 gave: two-siRNA summed score (-2 to +2) = 0.

Records above whose target name starts with S or s:
SLC71A1 — two-siRNA summed score (-2 to +2) = 0
ST6GALNAC4 — two-siRNA summed score (-2 to +2) = 0

The list goes on.
After knock-down of CHCHD6 the results were two-siRNA summed score (-2 to +2) = 0.
CRYGEP scored two-siRNA summed score (-2 to +2) = 0.
For MGLL, the entry reads two-siRNA summed score (-2 to +2) = 0.
GATA6 showed two-siRNA summed score (-2 to +2) = 0.
LOC153441 gave two-siRNA summed score (-2 to +2) = 0.
LOC441665 gave two-siRNA summed score (-2 to +2) = 1.
With knock-down of ARMH1, the record shows two-siRNA summed score (-2 to +2) = 0.
Silencing of PSMD13 resulted in: two-siRNA summed score (-2 to +2) = 2 (active).
Against CRELD1, the values are two-siRNA summed score (-2 to +2) = 0.
After knock-down of ZIM3 the results were two-siRNA summed score (-2 to +2) = 0.
For LOC387705, the values are two-siRNA summed score (-2 to +2) = 2 (active).
Knock-down of MSL3 gave: two-siRNA summed score (-2 to +2) = 0.
Knock-down of LOC440399 came out at: two-siRNA summed score (-2 to +2) = 1.
LOC347273 showed two-siRNA summed score (-2 to +2) = 1.
